Results are given in words; binding and its absence hold for the method and conditions named. For some of these results: In cells and extracts the contact can be indirect. Some binding calls cover weakened binding; strength is not graded here.
Experiments:
purified GST-ERK2 = purified GST-ERK2 (UniProt P28482); experiment: pull-down; immunoprecipitates of Flag-tagged wild-type 14-3-3ζ from hypoxia-stimulated SW-1990 cells incubated with 100 ng purified GST or GST fusion protein in kinase buffer (50 mM ATP, 150 mM NaCl, 1 mM DTT, 0.5 mM EDTA), 30 min at 30 °C; glutathione agarose beads; both purified
[1] = molecular target: Yes-associated protein (YAP), endogenous (human (endogenous in SW-1990)) (UniProt P46937); experiment: condition: only e14-3-3ζ-depleted cells reconstituted with mutant 14-3-3ζ S37A; co-IP; nuclear YAP and HIF-1α in sh.14-3-3ζ SW-1990 cells reconstituted with mutant 14-3-3ζ S37A, under hypoxia
[2] = molecular target: Yes-associated protein (YAP), endogenous (human (endogenous in SW-1990)) (UniProt P46937); experiment: co-IP; nuclear fractions of hypoxia-stimulated SW-1990 cells after depletion of ERK2 with siRNA; IP of YAP, blot for HIF-1α
[3] = molecular target: Yes-associated protein (YAP), endogenous (human (endogenous in SW-1990)) (UniProt P46937); experiment: co-IP; nuclear fractions of hypoxia-stimulated SW-1990 (S-1) cells; IP of Myc or of YAP, western blot; also with Flag-14-3-3ζ expression, serum stimuli, ERK2 siRNA (TEAD4 panel), or sh.14-3-3ζ cells reconstituted with wild-type 14-3-3ζ
[4] = molecular target: Flag-tagged mutant 14-3-3ζ S37A (human) (UniProt P63104); experiment: co-IP; SW-1990 cell lysates in RIPA buffer, protein A/G-sepharose beads overnight at 4 °C, washes with 300 mM NaCl, 0.5% NP-40; normoxia or hypoxia (6 h), also CoCl2, 5 μmol/L BAY 11-7085, 20 μmol/L U0126 or ERK2 siRNA
[5] = molecular target: endogenous 14-3-3ζ (human (endogenous in SW-1990)) (UniProt P63104); experiment: as above
[6] = molecular target: endogenous 14-3-3ζ (human (endogenous in SW-1990)) (UniProt P63104); experiment: co-IP; as the co-IP of lysates, cells under hypoxia stimuli (Supplemental Fig. S2e)

Protein sequences, listed by entry. Tags and fused reporters are not part of them. Lines headed by an entry give the natural chain unless they say otherwise; changes in a name come on top.
UniProt P28482: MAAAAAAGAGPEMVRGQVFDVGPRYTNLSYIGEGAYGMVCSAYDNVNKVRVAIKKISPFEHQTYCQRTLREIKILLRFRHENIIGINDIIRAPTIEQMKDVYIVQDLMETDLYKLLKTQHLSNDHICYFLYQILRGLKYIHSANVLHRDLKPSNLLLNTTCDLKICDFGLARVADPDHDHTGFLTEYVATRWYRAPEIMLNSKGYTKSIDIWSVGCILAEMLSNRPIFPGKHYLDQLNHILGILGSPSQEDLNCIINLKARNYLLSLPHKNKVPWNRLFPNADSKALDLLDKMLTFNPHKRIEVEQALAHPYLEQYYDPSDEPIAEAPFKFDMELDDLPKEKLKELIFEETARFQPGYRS
UniProt P46937: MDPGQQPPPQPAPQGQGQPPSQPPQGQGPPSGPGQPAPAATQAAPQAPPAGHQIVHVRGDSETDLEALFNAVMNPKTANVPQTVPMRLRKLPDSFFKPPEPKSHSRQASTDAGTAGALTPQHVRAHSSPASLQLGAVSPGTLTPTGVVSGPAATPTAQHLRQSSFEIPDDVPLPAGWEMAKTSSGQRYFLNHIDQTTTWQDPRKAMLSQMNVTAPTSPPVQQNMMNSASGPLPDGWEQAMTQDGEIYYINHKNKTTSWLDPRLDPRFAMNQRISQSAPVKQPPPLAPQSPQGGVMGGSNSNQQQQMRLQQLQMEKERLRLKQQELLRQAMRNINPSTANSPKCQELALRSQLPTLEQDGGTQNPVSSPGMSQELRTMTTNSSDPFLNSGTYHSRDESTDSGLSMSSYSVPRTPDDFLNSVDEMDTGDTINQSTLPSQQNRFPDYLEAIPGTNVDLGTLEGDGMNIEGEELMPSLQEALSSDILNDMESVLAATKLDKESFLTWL
UniProt P63104: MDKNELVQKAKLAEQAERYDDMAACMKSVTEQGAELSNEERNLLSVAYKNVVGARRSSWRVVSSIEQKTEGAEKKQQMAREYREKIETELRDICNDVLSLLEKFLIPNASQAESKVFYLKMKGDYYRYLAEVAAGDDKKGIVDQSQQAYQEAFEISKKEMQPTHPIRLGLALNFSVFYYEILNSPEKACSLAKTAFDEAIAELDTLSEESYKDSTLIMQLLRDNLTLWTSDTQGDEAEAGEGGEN
UniProt Q16665: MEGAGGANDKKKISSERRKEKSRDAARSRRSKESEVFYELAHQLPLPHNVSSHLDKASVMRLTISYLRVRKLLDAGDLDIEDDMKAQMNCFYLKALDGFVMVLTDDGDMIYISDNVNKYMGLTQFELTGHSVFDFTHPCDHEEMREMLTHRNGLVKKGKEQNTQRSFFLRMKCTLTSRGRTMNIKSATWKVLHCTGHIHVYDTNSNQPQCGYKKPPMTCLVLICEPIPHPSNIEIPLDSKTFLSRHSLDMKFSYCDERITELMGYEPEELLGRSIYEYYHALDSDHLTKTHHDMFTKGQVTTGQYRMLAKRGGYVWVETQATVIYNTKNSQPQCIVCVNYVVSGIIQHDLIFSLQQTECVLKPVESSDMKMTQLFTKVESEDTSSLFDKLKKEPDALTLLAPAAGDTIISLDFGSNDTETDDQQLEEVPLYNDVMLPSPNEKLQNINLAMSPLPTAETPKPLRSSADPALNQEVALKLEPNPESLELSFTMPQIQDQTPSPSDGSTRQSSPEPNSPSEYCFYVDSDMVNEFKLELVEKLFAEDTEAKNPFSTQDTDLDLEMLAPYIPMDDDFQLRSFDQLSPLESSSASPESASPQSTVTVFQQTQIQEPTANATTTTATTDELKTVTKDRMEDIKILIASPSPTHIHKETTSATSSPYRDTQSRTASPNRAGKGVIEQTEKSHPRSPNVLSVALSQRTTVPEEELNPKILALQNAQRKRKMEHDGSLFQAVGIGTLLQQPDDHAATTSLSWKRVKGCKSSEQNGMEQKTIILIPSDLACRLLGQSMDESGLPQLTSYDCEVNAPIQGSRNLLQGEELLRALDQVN
UniProt Q9GZV5: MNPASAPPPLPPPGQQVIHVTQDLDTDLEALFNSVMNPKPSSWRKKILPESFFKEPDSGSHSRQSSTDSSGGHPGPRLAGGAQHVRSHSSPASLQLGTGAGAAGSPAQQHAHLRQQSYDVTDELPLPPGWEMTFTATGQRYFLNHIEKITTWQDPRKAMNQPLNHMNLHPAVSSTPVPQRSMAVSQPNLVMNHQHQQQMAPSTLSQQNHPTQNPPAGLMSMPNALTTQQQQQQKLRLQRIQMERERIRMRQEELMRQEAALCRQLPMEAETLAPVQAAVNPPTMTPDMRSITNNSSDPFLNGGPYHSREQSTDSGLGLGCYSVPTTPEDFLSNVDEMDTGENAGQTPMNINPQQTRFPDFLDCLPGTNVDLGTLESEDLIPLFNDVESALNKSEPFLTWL

**Q.** How did the binding (purified GST-ERK2) turn out when “Flag-tagged wild-type 14-3-3ζ (from UniProt P63104 1-245)” was run?
**A.** binds

**Q.** What does the source list for “Hypoxia-inducible factor 1α (HIF-1α), endogenous (from UniProt Q16665 1-826)”?
**A.** binding [1]: no binding; binding [2]: no binding (condition: after depletion of ERK2 with siRNA); binding [3]: binds

**Q.** For “Yes-associated protein (YAP), endogenous (from UniProt P46937 1-504)”, which binding [4] is on record?
**A.** binds

**Q.** Which binding [5] does the source give for “WWTR1 (WW domain-containing transcription regulator protein 1) (from UniProt Q9GZV5 1-400)” here?
**A.** binds

**Q.** And the binding [6]?
**A.** no binding (condition: cells under hypoxia stimuli)
